Source: patent US12595222B2, “Curcuminoids, analogs thereof, and methods of making the same” (WiSys Technology Foundation, Inc., priority 2021, dated 2026)
At least one compound was matched to its structure with a doubt left.

Key:
Test in all cases: Inactivation by curcuminoids in combination with ultraviolet-A (UVA) light
Assay type in all cases: cell-based
Details in all cases: compared with curcumin itself, preliminary data
[1] = test system: Escherichia coli
[2] = test system: Staphylococcus aureus
[3] = test system: Tulane virus (a human norovirus surrogate)

COc1cc(/C=C/C(O)=C/C(=O)/C=C/c2ccc(O)cc2)ccc1O [demethoxycurcumin]
higher effects: inactivation of Escherichia coli [1] | inactivation of Staphylococcus aureus [2] | inactivation of Tulane virus [3]
